Experimental data reported in patent publication US20230322854A1, “HUNTINGTIN-RELATED PEPTIDE AGENTS AND USES THEREOF” (UNIVERSITY OF SOUTHERN CALIFORNIA, priority 2020, published 2023).
Some results were stated once for a whole list of compounds, not compound by compound. Some ranges recur; such a range may be that of the whole group of compounds.

Test system: monomeric Huntingtin
Experiment: Radioactive binding assay, monomeric Huntingtin
Settings: radiolabeled peptide
Description: (§1) The binding of the peptide library was determined using a radioactive binding assay. In this assay, peptides were radiolabeled by translating the mRNA coding for these peptides in the presence of ^35S-methionine using rabbit reticulocyte lysate (Jackson, et al. (1983) Methods Enzymol 96: 50-74). These peptides were translated in an mRNA display format and were thus linked to their encoding mRNA, as described above. After purification by dT chromatography, the radiolabeled peptides were incubated with Huntingtin fibrils immobilized on Neutravidin Agarose or Streptavidin Ultralink beads. The beads were then filtered through a Spin X column (Corning) to separate the supernatant and beads, then washed to remove unbound sequences. The supernatant, washes, and beads were all counted in a scintillation counter to determine the counts in each sample. The percent bound was determined by dividing the counts on the beads with the total counts (beads+washes+supernatant).
HD1 through HD4 were also tested for binding to monomeric Huntingtin (FIG. 5).
HD1 and HD8 were also tested for binding specificity. Radiolabeled HD1 and HD8 were incubated with monomeric Huntingtin, unbundled Htt-fibrils, or α-Synuclein fibrils (α-Synuclein is another protein known to aggregate and form fibrils).

| Sequence | binding to monomeric Huntingtin |
| --- | --- |
| MDWWPMWPSL [HD1] | did not show appreciable binding |
| MFMMMWMSLT (MFMMMWMSLTGSGTSGSS) [HD4] | did not show appreciable binding |
| MRWSMSYSWA (MRWSMSYSWAGSGTSGSS) [HD3] | did not show appreciable binding |
| MWMIQMPGYQ (MWMIQMPGYQGSGTSGSS) [HD2] | did not show appreciable binding |

Test system: unbundled Huntingtin fibrils (exon 1)
Experiment: Radioactive binding assay, immobilized unbundled Huntingtin fibrils
Settings: HD1 Met mutants / N-terminal extension versus HD1
Text: Messenger RNA (mRNA) display (described in (Roberts, et al. (1997) Proc Natl Acad Sci USA 94: 12297-302, Takahashi, et al. (2003) Trends Biochem Sci 28: 159-65); FIG. 2) was used to engineer peptide agents that bind to unbundled fibrils of Huntingtin exon 1. To do this, unbundled Huntingtin fibrils were generated by mixing biotinylated Huntingtin protein (exon 1; FIG. 1) with non-biotinylated exon 1 Huntingtin protein at a ratio of 1:20 (˜5% biotinylated Huntingtin). These fibrils were then immobilized on Neutravidin agarose (Thermo Fisher) or Streptavidin ultralink beads (Thermo Fisher) via the attached biotin. A MX9 (where X is any of the 20 natural amino acids) mRNA display library was generated using published procedures (Takahashi, et al. (2009) Methods Mol Biol 535: 293-314) and incubated with immobilized fibrils. Non-binding sequences were washed away and the remaining fibril binding peptides were amplified via RT-PCR. This process was repeated seven times.
as §1

| Sequence | reduced binding |
| --- | --- |
| MLDWWPLWPSL (MLDWWPLWPSLGSGTSGSS) [ML6L] | 20-25% |
| MLDWWPMWPSL (MLDWWPMWPSLGSGTSGSS) [HD1 ML] | 20-25% |
| MMDWWPLWPSL (MMDWWPLWPSLGSGTSGSS) [HD1 MM6L] | 20-25% |
| MMDWWPMWPSL (MMDWWPMWPSLGSGTSGSS) [HD1 MM] | 20-25% |
